No constants are given. Whether binding was seen depends on the method and setting. In cells and extracts the contact can be indirect. Some binding calls cover weakened binding; strength is not graded here. Where a sequence is shown, tags or fusion partners need not be part of it.
T1: CD45 (protein tyrosine phosphatase receptor type C), longest isoform CD45RABC, as HA-CD45 and MYC-CD45 in HEK293T cells (human), P08575
T1 chain: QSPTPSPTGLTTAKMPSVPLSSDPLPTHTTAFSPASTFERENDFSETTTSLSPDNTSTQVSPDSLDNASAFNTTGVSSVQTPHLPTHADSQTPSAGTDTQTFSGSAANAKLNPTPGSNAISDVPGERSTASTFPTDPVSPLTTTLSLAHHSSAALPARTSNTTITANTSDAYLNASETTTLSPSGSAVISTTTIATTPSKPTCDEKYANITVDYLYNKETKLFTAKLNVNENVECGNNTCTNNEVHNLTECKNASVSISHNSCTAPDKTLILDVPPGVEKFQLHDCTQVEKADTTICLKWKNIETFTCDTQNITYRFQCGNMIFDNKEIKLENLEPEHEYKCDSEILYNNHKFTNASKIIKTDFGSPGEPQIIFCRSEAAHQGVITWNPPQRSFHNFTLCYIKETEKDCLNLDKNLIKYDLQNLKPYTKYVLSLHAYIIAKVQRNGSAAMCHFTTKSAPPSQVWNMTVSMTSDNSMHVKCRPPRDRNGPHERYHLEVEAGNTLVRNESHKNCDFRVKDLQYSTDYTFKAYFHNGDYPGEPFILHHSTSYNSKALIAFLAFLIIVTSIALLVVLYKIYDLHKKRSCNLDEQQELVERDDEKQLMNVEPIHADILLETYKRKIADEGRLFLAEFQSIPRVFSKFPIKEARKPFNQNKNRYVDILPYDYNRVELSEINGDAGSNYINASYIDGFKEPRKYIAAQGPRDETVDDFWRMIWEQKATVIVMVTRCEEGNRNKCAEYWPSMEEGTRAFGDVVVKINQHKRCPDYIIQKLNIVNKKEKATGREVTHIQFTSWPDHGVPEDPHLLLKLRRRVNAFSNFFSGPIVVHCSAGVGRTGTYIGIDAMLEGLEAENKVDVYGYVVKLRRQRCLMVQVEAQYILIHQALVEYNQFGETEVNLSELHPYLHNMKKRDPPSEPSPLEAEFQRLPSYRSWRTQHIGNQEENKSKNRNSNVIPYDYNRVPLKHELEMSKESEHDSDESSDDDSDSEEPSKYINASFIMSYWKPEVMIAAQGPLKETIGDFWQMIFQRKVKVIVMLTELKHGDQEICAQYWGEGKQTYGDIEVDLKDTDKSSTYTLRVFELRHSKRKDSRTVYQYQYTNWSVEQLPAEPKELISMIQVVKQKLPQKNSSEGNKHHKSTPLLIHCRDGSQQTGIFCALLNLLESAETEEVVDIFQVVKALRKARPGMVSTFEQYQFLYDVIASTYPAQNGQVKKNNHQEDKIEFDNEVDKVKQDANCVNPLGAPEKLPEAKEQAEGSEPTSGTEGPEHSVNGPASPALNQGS

T2: CD45 (CD45RABC) as CD45-GFP fusion in Jurkat-sgCD45 cells and as HA-CD45 in Caco2 cells (human), P08575
T2 chain: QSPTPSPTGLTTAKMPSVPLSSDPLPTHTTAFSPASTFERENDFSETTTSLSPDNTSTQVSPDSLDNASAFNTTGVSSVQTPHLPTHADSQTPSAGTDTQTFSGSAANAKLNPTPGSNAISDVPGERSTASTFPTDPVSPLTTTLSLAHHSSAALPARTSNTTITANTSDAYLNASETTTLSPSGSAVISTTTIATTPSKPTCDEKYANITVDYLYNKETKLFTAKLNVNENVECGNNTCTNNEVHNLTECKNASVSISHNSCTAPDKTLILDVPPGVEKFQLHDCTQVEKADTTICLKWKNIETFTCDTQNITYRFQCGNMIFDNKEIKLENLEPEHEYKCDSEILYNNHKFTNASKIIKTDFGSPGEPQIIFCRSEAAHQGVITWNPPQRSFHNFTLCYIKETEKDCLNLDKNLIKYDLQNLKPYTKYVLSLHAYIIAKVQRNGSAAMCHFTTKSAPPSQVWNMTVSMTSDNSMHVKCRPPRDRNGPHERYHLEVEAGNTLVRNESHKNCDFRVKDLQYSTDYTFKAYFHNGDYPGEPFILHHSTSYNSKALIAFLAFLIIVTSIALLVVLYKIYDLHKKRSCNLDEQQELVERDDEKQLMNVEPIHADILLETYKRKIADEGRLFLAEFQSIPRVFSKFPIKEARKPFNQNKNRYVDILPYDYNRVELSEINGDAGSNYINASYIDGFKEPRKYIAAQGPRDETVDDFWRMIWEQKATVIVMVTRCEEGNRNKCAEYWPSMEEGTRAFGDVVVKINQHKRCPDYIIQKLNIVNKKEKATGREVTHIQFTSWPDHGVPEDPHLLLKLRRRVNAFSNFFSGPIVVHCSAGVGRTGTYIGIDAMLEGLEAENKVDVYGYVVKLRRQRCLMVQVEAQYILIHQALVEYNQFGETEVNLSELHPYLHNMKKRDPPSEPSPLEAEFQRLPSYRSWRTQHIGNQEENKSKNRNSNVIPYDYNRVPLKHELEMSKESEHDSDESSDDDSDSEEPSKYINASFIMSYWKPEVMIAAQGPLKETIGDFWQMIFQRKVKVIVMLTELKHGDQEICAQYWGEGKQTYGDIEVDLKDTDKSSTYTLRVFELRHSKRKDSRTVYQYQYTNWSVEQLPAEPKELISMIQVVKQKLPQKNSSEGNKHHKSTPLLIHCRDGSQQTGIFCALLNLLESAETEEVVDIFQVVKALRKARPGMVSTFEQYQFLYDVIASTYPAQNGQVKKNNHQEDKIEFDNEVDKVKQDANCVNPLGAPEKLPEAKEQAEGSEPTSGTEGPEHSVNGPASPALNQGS


Assays:
Details in all cases: remark: other sources report otherwise
[1] = target: T1, CD45 (protein tyrosine phosphatase …); assay: co-IP; HEK293T cells with HA-tagged and HEK293T cells with MYC-tagged CD45 cocultured 1:1 in ultra-low attachment plate for 3 h, NP40 lysis, HA-tag or MYC-tag rabbit antibody overnight at 4 °C, Protein A/G magnetic beads, immunoblot
[2] = target: T1, CD45 (protein tyrosine phosphatase …); assay: proximity ligation; HEK293T cells with HA-tagged and HEK293T cells with MYC-tagged CD45 cocultured 1:1 in ultra-low attachment plate for 3 h, fixed and permeabilised, HA-tag mouse and MYC-tag rabbit antibodies, Duolink In Situ Detection Reagents Red
[3] = target: T2, CD45 (CD45RABC) as CD45-GFP fusion in …; assay: co-IP; Jurkat-sgCD45-CD45^GFP and Caco2-HA-CD45 cells cocultured 1:1 for 3 h, then co-immunoprecipitation as for the HEK293T cells
[4] = target: T2, CD45 (CD45RABC) as CD45-GFP fusion in …; assay: proximity ligation; Jurkat-sgCD45-CD45^GFP and Caco2-HA-CD45 cells cocultured 1:1 for 3 h, fixed and permeabilised, Duolink; control Caco2-HA-Ctrl cells gave significantly weaker fluorescence

binding [1] | binding [2] | binding [3] | binding [4] | Binder
binds | binds | – | – | CD45 (protein tyrosine phosphatase receptor type C), longest isoform CD45RABC, as HA-CD45 and MYC-CD45 in HEK293T cells, P08575-3 26-1306 (protein) QSPTPSPTGLTTAKMPSVPLSSDPLPTHTTAFSPASTFERENDFSETTTSLSPDNTSTQVSPDSLDNASAFNTTGVSSVQTPHLPTHADSQTPSAGTDTQTFSGSAANAKLNPTPGSNAISDVPGERSTASTFPTDPVSPLTTTLSLAHHSSAALPARTSNTTITANTSDAYLNASETTTLSPSGSAVISTTTIATTPSKPTCDEKYANITVDYLYNKETKLFTAKLNVNENVECGNNTCTNNEVHNLTECKNASVSISHNSCTAPDKTLILDVPPGVEKFQLHDCTQVEKADTTICLKWKNIETFTCDTQNITYRFQCGNMIFDNKEIKLENLEPEHEYKCDSEILYNNHKFTNASKIIKTDFGSPGEPQIIFCRSEAAHQGVITWNPPQRSFHNFTLCYIKETEKDCLNLDKNLIKYDLQNLKPYTKYVLSLHAYIIAKVQRNGSAAMCHFTTKSAPPSQVWNMTVSMTSDNSMHVKCRPPRDRNGPHERYHLEVEAGNTLVRNESHKNCDFRVKDLQYSTDYTFKAYFHNGDYPGEPFILHHSTSYNSKALIAFLAFLIIVTSIALLVVLYKIYDLHKKRSCNLDEQQELVERDDEKQLMNVEPIHADILLETYKRKIADEGRLFLAEFQSIPRVFSKFPIKEARKPFNQNKNRYVDILPYDYNRVELSEINGDAGSNYINASYIDGFKEPRKYIAAQGPRDETVDDFWRMIWEQKATVIVMVTRCEEGNRNKCAEYWPSMEEGTRAFGDVVVKINQHKRCPDYIIQKLNIVNKKEKATGREVTHIQFTSWPDHGVPEDPHLLLKLRRRVNAFSNFFSGPIVVHCSAGVGRTGTYIGIDAMLEGLEAENKVDVYGYVVKLRRQRCLMVQVEAQYILIHQALVEYNQFGETEVNLSELHPYLHNMKKRDPPSEPSPLEAEFQRLPSYRSWRTQHIGNQEENKSKNRNSNVIPYDYNRVPLKHELEMSKESEHDSDESSDDDSDSEEPSKYINASFIMSYWKPEVMIAAQGPLKETIGDFWQMIFQRKVKVIVMLTELKHGDQEICAQYWGEGKQTYGDIEVDLKDTDKSSTYTLRVFELRHSKRKDSRTVYQYQYTNWSVEQLPAEPKELISMIQVVKQKLPQKNSSEGNKHHKSTPLLIHCRDGSQQTGIFCALLNLLESAETEEVVDIFQVVKALRKARPGMVSTFEQYQFLYDVIASTYPAQNGQVKKNNHQEDKIEFDNEVDKVKQDANCVNPLGAPEKLPEAKEQAEGSEPTSGTEGPEHSVNGPASPALNQGS
– | – | binds | binds | CD45 (CD45RABC) as CD45-GFP fusion in Jurkat-sgCD45 cells and as HA-CD45 in Caco2 cells, P08575-3 26-1306 (protein) QSPTPSPTGLTTAKMPSVPLSSDPLPTHTTAFSPASTFERENDFSETTTSLSPDNTSTQVSPDSLDNASAFNTTGVSSVQTPHLPTHADSQTPSAGTDTQTFSGSAANAKLNPTPGSNAISDVPGERSTASTFPTDPVSPLTTTLSLAHHSSAALPARTSNTTITANTSDAYLNASETTTLSPSGSAVISTTTIATTPSKPTCDEKYANITVDYLYNKETKLFTAKLNVNENVECGNNTCTNNEVHNLTECKNASVSISHNSCTAPDKTLILDVPPGVEKFQLHDCTQVEKADTTICLKWKNIETFTCDTQNITYRFQCGNMIFDNKEIKLENLEPEHEYKCDSEILYNNHKFTNASKIIKTDFGSPGEPQIIFCRSEAAHQGVITWNPPQRSFHNFTLCYIKETEKDCLNLDKNLIKYDLQNLKPYTKYVLSLHAYIIAKVQRNGSAAMCHFTTKSAPPSQVWNMTVSMTSDNSMHVKCRPPRDRNGPHERYHLEVEAGNTLVRNESHKNCDFRVKDLQYSTDYTFKAYFHNGDYPGEPFILHHSTSYNSKALIAFLAFLIIVTSIALLVVLYKIYDLHKKRSCNLDEQQELVERDDEKQLMNVEPIHADILLETYKRKIADEGRLFLAEFQSIPRVFSKFPIKEARKPFNQNKNRYVDILPYDYNRVELSEINGDAGSNYINASYIDGFKEPRKYIAAQGPRDETVDDFWRMIWEQKATVIVMVTRCEEGNRNKCAEYWPSMEEGTRAFGDVVVKINQHKRCPDYIIQKLNIVNKKEKATGREVTHIQFTSWPDHGVPEDPHLLLKLRRRVNAFSNFFSGPIVVHCSAGVGRTGTYIGIDAMLEGLEAENKVDVYGYVVKLRRQRCLMVQVEAQYILIHQALVEYNQFGETEVNLSELHPYLHNMKKRDPPSEPSPLEAEFQRLPSYRSWRTQHIGNQEENKSKNRNSNVIPYDYNRVPLKHELEMSKESEHDSDESSDDDSDSEEPSKYINASFIMSYWKPEVMIAAQGPLKETIGDFWQMIFQRKVKVIVMLTELKHGDQEICAQYWGEGKQTYGDIEVDLKDTDKSSTYTLRVFELRHSKRKDSRTVYQYQYTNWSVEQLPAEPKELISMIQVVKQKLPQKNSSEGNKHHKSTPLLIHCRDGSQQTGIFCALLNLLESAETEEVVDIFQVVKALRKARPGMVSTFEQYQFLYDVIASTYPAQNGQVKKNNHQEDKIEFDNEVDKVKQDANCVNPLGAPEKLPEAKEQAEGSEPTSGTEGPEHSVNGPASPALNQGS

— article PMC10995208
